Laboratory results from PubChem BioAssay AID248 (DTP/NCI, 2004).
The list does not hold the whole screen: it is rich in T/C values a quarter to a half above the control, in often repeated tests (any T/C) and in doses without a T/C. Further doses and runs are listed elsewhere. T/C gives the treated animals as a percentage of the vehicle group. Some doses have a count of surviving animals in place of a T/C: the source holds a T/C of zero for them, seemingly a mark for toxic or unscored doses. Some survivor counts are full or nearly so, which does not show that the dose was tolerated: survival well below the control is almost never listed, so the zero probably covers shortened survival too. Counts of survivors are from the toxicity check (mostly the fifth day) where no day follows; animals may have died later. Schedule codes are those of the source, read here as Q, the interval in days (D) or hours (H), X, the number of doses. For survival time, this PubChem deposit counts one and a half times the control or more as active, and values a quarter to a half above the control carry no call in these data; other NCI protocols may use other cut-offs.

Test system: L1210 leukemia ip in BDF1 mice, survival T/C
Test: NCI In Vivo Anticancer Drug Screen. Data for tumor model L1210 Leukemia (intraperitoneal) in B6D2F1 (BDF1) mice
Details: T/C endpoint: mean survival time, higher T/C = longer survival
[1] = dose: 75.0 mg/kg/injection, schedule: Q01DX001 (ip), vehicle: carboxymethylcellulose (CMC)
[2] = dose: 400.0 mg/kg/injection, schedule: Q01DX001 (ip), vehicle: carboxymethylcellulose (CMC)
[3] = dose: 200.0 mg/kg/injection, schedule: Q04DX003 (ip), vehicle: saline with Tween-80
[4] = dose: 100.0 mg/kg/injection, schedule: Q04DX003 (ip), vehicle: saline with Tween-80
[5] = dose: 400.0 mg/kg/injection, schedule: Q04DX003 (ip), vehicle: Klucel (hydroxypropylcellulose) (HPC)
[6] = dose: 400.0 mg/kg/injection, schedule: Q01DX009 (ip), vehicle: Klucel (hydroxypropylcellulose) (HPC)

O=C(CN1CC1)NCCCCCCCNC(=O)CN1CC1
T/C (dose: 4.3 mg/kg/injection, schedule: Q01DX001 (ip), vehicle: carboxymethylcellulose (CMC)): 126 % of control
T/C (dose: 22.0 mg/kg/injection, schedule: Q01DX001 (ip), vehicle: carboxymethylcellulose (CMC)): 133 % of control
T/C (dose: 50.0 mg/kg/injection, schedule: Q01DX001 (ip), vehicle: carboxymethylcellulose (CMC)): 135 % of control
survivor count [1]: 6 of 6
survivor count (dose: 100.0 mg/kg/injection, schedule: Q01DX001 (ip), vehicle: carboxymethylcellulose (CMC)): 0 of 4
survivor count (dose: 200.0 mg/kg/injection, schedule: Q01DX001 (ip), vehicle: carboxymethylcellulose (CMC)): 0 of 4
survivor count [2]: 0 of 4

O=S1OCC=CCO1
survivor count [2]: 1 of 4

COc1cccc(/C(C)=N\Nc2ccc([N+](=O)[O-])cc2[N+](=O)[O-])c1OC
survivor count (dose: 200.0 mg/kg/injection, schedule: Q01DX009 (ip), vehicle: saline): 6 of 6
survivor count [3]: 6 of 6

CN1CCCCC1CCN1c2ccccc2Sc2ccc(Br)cc21 (stereo unspecified)
survivor count (dose: 25.0 mg/kg/injection, schedule: Q01DX009 (ip), vehicle: saline): 0 of 6
survivor count (dose: 50.0 mg/kg/injection, schedule: Q01DX009 (ip), vehicle: saline): 0 of 6

C/C(=C/c1ccccc1)C(=O)NN
survivor count (dose: 320.0 mg/kg/injection, schedule: Q01DX001 (ip), vehicle: saline with Tween-80): 2 of 6

CC(=O)OCC1OC(n2cnc3c(=O)[nH]c(N)nc32)C(OC(C)=O)C1OC(C)=O (stereo unspecified)
survivor count (dose: 100.0 mg/kg/injection, schedule: Q01DX005 (ip), vehicle: saline): 6 of 6

OCCC1(CCO)CCCCC1
survivor count [4]: 6 of 6
survivor count (dose: 200.0 mg/kg/injection, schedule: Q01DX009 (ip), vehicle: saline with Tween-80): 3 of 6
survivor count (dose: 400.0 mg/kg/injection, schedule: Q01DX009 (ip), vehicle: saline with Tween-80): 0 of 6

COc1cc(NC(=O)Nc2ccccc2Cl)c(OC)cc1Cl
survivor count (dose: 200.0 mg/kg/injection, schedule: Q04DX002 (ip), vehicle: saline with Tween-80): 3 of 3
survivor count (dose: 400.0 mg/kg/injection, schedule: Q04DX002 (ip), vehicle: saline with Tween-80): 3 of 3

CN1CCC2CCCCC2C1Cc1ccc(CC2C3CCCCC3CCN2C)cc1 (stereo unspecified)
survivor count (dose: 10.0 mg/kg/injection, schedule: Q01DX001 (ip), vehicle: carboxymethylcellulose (CMC)): 0 of 6
survivor count (dose: 15.0 mg/kg/injection, schedule: Q01DX001 (ip), vehicle: carboxymethylcellulose (CMC)): 1 of 6
survivor count (dose: 30.0 mg/kg/injection, schedule: Q01DX001 (ip), vehicle: carboxymethylcellulose (CMC)): 0 of 6
survivor count (dose: 60.0 mg/kg/injection, schedule: Q01DX001 (ip), vehicle: carboxymethylcellulose (CMC)): 0 of 6
survivor count [1]: 0 of 6
survivor count (dose: 150.0 mg/kg/injection, schedule: Q01DX001 (ip), vehicle: carboxymethylcellulose (CMC)): 0 of 6
survivor count (dose: 300.0 mg/kg/injection, schedule: Q01DX001 (ip), vehicle: carboxymethylcellulose (CMC)): 0 of 6

O=c1cc(S(=O)(=O)c2ccccc2)[nH]c(=O)[nH]1
survivor count [5]: 1 of 6

CCOC(=O)NOP(=O)(N1CC1(C)C)N1CC1(C)C (stereo unspecified)
survivor count (dose: 400.0 mg/kg/injection, schedule: Q04DX002 (ip), vehicle: saline): 0 of 3

COc1cc(OC)c(NC(=O)CCl)cc1Cl
survivor count [6]: 3 of 6

O=C(Nc1cc(C(F)(F)F)ccc1Cl)Oc1ccc(Cl)cc1Cc1ccccc1
survivor count (dose: 50.0 mg/kg/injection, schedule: Q01DX009 (ip), vehicle: Klucel (hydroxypropylcellulose) (HPC)): 6 of 6
survivor count (dose: 200.0 mg/kg/injection, schedule: Q01DX009 (ip), vehicle: Klucel (hydroxypropylcellulose) (HPC)): 2 of 6
survivor count [6]: 2 of 6

NC(=O)c1c(Br)n(C2OC(CO)C(O)C2O)c2ncnc(N)c12 (stereo unspecified)
T/C (dose: 100.0 mg/kg/injection, schedule: Q04DX003 (ip), vehicle: Klucel (hydroxypropylcellulose) (HPC)): 125 % of control
T/C [4]: 129 % of control
T/C (dose: 200.0 mg/kg/injection, schedule: Q01DX001 (ip), vehicle: saline): 127 % of control
T/C (dose: 200.0 mg/kg/injection, schedule: Q04DX003 (ip), vehicle: Klucel (hydroxypropylcellulose) (HPC)): 134 % of control
T/C [3]: 136 % of control
T/C (dose: 400.0 mg/kg/injection, schedule: Q01DX001 (ip), vehicle: saline): 141 % of control
T/C [5]: 145 % of control
T/C (dose: 600.0 mg/kg/injection, schedule: Q01DX001 (ip), vehicle: saline): 129 % of control
T/C (dose: 800.0 mg/kg/injection, schedule: Q04DX003 (ip), vehicle: Klucel (hydroxypropylcellulose) (HPC)): 134 % of control
